Laboratory results published in patent US7262301B1, “Zinc-chelating ratiometric fluorescent probes and related methods” (Northwestern University, priority 2003, dated 2007).

Assay: Quantum yield determination by fluorescence spectroscopy against fluorescein
Assay type: physicochemical
Details: standard fluorescein in 0.1 N NaOH

COc1cc(O)c(-c2nc3c(CNCc4ccccn4)cccc3o2)cc1OC [Zinbo-5, 2-(4,5-dimethoxy-2-hydroxyphenyl)-4-(2-pyridlmethyl)aminomethylbenzoxazole]
Quantum yield, apo form: 0.02 | Quantum yield, zinc complex: 0.10
